doi:10.1101/2022.11.15.516651

By UniProt entry, the sequences of proteins in these tests, tags left out. Where a name states a change or a piece, a line headed by the entry shows the natural chain unless it says otherwise. Chains listed by the source or under a name are the forms on record and can include a tag or linker. Residues count along the entry.
FLAG-SLC3A2 WTseq (P08195, residues 66-630): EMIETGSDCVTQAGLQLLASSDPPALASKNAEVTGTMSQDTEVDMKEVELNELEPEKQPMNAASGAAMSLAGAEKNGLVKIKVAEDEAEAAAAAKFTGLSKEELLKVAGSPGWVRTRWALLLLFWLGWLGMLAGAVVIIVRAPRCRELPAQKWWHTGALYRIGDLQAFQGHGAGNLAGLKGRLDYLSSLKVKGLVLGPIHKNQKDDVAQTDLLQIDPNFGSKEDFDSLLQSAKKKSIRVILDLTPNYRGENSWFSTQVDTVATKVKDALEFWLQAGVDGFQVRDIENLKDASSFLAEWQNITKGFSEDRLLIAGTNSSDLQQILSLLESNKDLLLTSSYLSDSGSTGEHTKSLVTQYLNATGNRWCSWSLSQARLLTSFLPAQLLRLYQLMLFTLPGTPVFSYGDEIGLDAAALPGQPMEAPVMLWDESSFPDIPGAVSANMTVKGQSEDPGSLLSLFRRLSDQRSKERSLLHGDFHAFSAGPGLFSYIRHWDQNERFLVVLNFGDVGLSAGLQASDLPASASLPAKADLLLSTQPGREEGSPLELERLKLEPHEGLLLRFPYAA
FLAG-SLC3A2 A273N (P08195, form named): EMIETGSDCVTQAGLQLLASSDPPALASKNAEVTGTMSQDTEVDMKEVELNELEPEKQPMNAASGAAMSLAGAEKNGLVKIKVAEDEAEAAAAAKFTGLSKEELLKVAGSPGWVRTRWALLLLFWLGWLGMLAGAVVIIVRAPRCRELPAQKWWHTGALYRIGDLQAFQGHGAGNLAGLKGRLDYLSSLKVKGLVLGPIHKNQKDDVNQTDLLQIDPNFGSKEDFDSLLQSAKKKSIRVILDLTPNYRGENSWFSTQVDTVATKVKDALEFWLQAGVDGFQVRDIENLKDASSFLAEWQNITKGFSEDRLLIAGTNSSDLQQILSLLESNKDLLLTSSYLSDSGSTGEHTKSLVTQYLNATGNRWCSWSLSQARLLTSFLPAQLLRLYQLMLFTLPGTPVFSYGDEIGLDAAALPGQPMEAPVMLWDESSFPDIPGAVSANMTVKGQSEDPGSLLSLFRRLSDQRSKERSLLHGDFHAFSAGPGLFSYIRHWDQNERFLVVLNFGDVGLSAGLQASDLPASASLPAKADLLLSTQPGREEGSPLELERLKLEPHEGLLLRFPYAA
FLAG-SLC3A2 A273N+D355N (P08195, form named): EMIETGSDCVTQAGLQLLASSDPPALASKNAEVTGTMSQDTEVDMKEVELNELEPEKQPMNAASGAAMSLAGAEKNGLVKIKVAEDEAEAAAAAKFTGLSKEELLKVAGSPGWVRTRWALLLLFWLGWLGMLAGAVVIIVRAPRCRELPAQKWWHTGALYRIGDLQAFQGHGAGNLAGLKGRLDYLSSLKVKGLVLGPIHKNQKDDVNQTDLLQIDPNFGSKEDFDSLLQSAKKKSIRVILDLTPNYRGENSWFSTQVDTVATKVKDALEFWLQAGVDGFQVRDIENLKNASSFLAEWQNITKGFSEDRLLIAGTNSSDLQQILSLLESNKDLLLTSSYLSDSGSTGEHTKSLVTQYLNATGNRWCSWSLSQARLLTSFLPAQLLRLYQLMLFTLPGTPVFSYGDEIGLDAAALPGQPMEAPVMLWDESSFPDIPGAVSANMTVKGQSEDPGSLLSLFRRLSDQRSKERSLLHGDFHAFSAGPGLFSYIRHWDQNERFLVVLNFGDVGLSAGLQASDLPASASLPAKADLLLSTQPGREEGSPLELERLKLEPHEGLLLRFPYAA
FLAG-SLC3A2 N365D (P08195, form named): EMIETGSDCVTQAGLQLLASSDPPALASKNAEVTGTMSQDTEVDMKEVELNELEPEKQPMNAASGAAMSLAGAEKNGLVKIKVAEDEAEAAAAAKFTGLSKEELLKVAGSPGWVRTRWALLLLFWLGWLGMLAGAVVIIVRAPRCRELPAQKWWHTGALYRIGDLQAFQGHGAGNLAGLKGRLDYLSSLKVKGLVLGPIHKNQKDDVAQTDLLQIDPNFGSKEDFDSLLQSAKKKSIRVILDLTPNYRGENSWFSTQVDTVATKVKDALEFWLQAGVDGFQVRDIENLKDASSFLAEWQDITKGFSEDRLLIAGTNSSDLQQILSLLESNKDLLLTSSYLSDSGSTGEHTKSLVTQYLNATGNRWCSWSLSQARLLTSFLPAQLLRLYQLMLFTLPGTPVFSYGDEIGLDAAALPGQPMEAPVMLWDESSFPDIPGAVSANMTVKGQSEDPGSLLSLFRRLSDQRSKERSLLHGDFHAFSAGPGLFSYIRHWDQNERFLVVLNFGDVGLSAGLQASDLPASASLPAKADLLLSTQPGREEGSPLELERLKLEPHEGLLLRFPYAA
FLAG-SLC3A2 N381D (P08195, form named): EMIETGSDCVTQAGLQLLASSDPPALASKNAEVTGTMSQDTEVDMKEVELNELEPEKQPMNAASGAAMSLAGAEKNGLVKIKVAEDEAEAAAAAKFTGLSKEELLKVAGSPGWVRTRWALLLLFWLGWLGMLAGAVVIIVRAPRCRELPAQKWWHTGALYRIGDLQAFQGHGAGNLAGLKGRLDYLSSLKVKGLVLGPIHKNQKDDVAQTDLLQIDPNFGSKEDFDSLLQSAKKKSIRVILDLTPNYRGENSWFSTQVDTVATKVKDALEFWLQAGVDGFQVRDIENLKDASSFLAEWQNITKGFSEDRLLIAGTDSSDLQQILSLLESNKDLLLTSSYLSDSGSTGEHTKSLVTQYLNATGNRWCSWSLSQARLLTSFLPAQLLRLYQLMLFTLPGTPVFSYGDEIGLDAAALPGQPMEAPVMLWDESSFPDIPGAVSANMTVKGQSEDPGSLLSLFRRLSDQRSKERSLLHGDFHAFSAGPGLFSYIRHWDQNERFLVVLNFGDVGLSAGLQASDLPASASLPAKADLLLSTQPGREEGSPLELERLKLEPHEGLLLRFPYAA

How the values were obtained:
Experiment in all cases: affinity purification with mass spectrometry
[1] = target: FLAG-SLC3A2 A273N (human) (UniProt P08195)
[2] = target: FLAG-SLC3A2 A273N+D355N (human) (UniProt P08195)
[3] = target: FLAG-SLC3A2 N365D (human) (UniProt P08195)
[4] = target: FLAG-SLC3A2 N381D (human) (UniProt P08195)
[5] = target: FLAG-SLC3A2 WTseq (human) (UniProt P08195)

Measured: binding

B1: Zn++ transporter SLC30A1 (protein, UniProt Q9Y6M5 1-507)
chain: MGCWGRNRGRLLCMLALTFMFMVLEVVVSRVTSSLAMLSDSFHMLSDVLALVVALVAERFARRTHATQKNTFGWIRAEVMGALVNAIFLTGLCFAILLEAIERFIEPHEMQQPLVVLGVGVAGLLVNVLGLCLFHHHSGFSQDSGHGHSHGGHGHGHGLPKGPRVKSTRPGSSDINVAPGEQGPDQEETNTLVANTSNSNGLKLDPADPENPRSGDTVEVQVNGNLVREPDHMELEEDRAGQLNMRGVFLHVLGDALGSVIVVVNALVFYFSWKGCSEGDFCVNPCFPDPCKAFVEIINSTHASVYEAGPCWVLYLDPTLCVVMVCILLYTTYPLLKESALILLQTVPKQIDIRNLIKELRNVEGVEEVHELHVWQLAGSRIIATAHIKCEDPTSYMEVAKTIKDVFHNHGIHATTIQPEFASVGSKSSVVPCELACRTQCALKQCCGTLPQAPSGKDAEKTPAVSISCLELSNNLEKKPRRTKAENIPAVVIEIKNMPNKQPESSL
binds: all assays above

B2: SLC38A2 (protein, UniProt Q96QD8 1-506)
chain: MKKAEMGRFSISPDEDSSSYSSNSDFNYSYPTKQAALKSHYADVDPENQNFLLESNLGKKKYETEFHPGTTSFGMSVFNLSNAIVGSGILGLSYAMANTGIALFIILLTFVSIFSLYSVHLLLKTANEGGSLLYEQLGYKAFGLVGKLAASGSITMQNIGAMSSYLFIVKYELPLVIQALTNIEDKTGLWYLNGNYLVLLVSLVVILPLSLFRNLGYLGYTSGLSLLCMVFFLIVVICKKFQVPCPVEAALIINETINTTLTQPTALVPALSHNVTENDSCRPHYFIFNSQTVYAVPILIFSFVCHPAVLPIYEELKDRSRRRMMNVSKISFFAMFLMYLLAALFGYLTFYEHVESELLHTYSSILGTDILLLIVRLAVLMAVTLTVPVVIFPIRSSVTHLLCASKDFSWWRHSLITVSILAFTNLLVIFVPTIRDIFGFIGASAASMLIFILPSAFYIKLVKKEPMKSVQKIGALFFLLSGVLVMTGSMALIVLDWVHNAPGGGH
binds: [1] | [2] | [5]

B3: SLC1A4 (protein, UniProt P43007 1-532)
chain: MEKSNETNGYLDSAQAGPAAGPGAPGTAAGRARRCAGFLRRQALVLLTVSGVLAGAGLGAALRGLSLSRTQVTYLAFPGEMLLRMLRMIILPLVVCSLVSGAASLDASCLGRLGGIAVAYFGLTTLSASALAVALAFIIKPGSGAQTLQSSDLGLEDSGPPPVPKETVDSFLDLARNLFPSNLVVAAFRTYATDYKVVTQNSSSGNVTHEKIPIGTEIEGMNILGLVLFALVLGVALKKLGSEGEDLIRFFNSLNEATMVLVSWIMWYVPVGIMFLVGSKIVEMKDIIVLVTSLGKYIFASILGHVIHGGIVLPLIYFVFTRKNPFRFLLGLLAPFATAFATCSSSATLPSMMKCIEENNGVDKRISRFILPIGATVNMDGAAIFQCVAAVFIAQLNNVELNAGQIFTILVTATASSVGAAGVPAGGVLTIAIILEAIGLPTHDLPLILAVDWIVDRTTTVVNVEGDALGAGILHHLNQKATKKGEQELAEVKVEAIPNCKSEEETSPLVTHQNPAGPVASAPELESKESVL
binds: [1] | [2] | [5]

B4: SLC38A1 (protein, UniProt Q9H2H9 1-487)
chain: MMHFKSGLELTELQNMTVPEDDNISNDSNDFTEVENGQINSKFISDRESRRSLTNSHLEKKKCDEYIPGTTSLGMSVFNLSNAIMGSGILGLAFALANTGILLFLVLLTSVTLLSIYSINLLLICSKETGCMVYEKLGEQVFGTTGKFVIFGATSLQNTGAMLSYLFIVKNELPSAIKFLMGKEETFSAWYVDGRVLVVIVTFGIILPLCLLKNLGYLGYTSGFSLSCMVFFLIVVIYKKFQIPCIVPELNSTISANSTNADTCTPKYVTFNSKTVYALPTIAFAFVCHPSVLPIYSELKDRSQKKMQMVSNISFFAMFVMYFLTAIFGYLTFYDNVQSDLLHKYQSKDDILILTVRLAVIVAVILTVPVLFFTVRSSLFELAKKTKFNLCRHTVVTCILLVVINLLVIFIPSMKDIFGVVGVTSANMLIFILPSSLYLKITDQDGDKGTQRIWAALFLGLGVLFSLVSIPLVIYDWACSSSSDEGH
binds: [1] | [2] | [5]

These are yes or no findings as the source states them, for the method shown. Binding seen in cells or lysates may run through a third protein. Here binding means that the protein was enriched with, or labelled near, the bait; the list need not be complete.
